In paper PMC6771385:
No constants are given. Whether binding was seen depends on the method and setting. In cells and extracts the contact can be indirect. Some results given as binding are weak or reduced against the parent protein; the word gives no strength. Sequences can lack the tags named with a protein.

Protein sequences, listed by entry. Tags and fused reporters are not part of them.
UniProt P93830: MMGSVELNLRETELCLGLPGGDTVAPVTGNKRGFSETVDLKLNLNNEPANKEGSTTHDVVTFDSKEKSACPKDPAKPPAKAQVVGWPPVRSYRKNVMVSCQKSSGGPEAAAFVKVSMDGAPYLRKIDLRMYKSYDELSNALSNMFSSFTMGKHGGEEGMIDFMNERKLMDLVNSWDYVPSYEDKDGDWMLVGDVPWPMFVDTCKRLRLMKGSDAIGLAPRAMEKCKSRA

Tests used:
[1] = target: T1, eGFP-ARF16-PB1 (Oryza sativa) (UniProt A3B9A0); test: co-IP; anti-GFP antibody-conjugated magnetic beads precipitate eGFP-ARF16-PB1 (wild type or mutant) from lysate of transfected HEK293T cells without TIR1; blot for mCherry; lysis and wash buffer 50 mM Tris pH 7.5, 150 mM NaCl, 0.5% NP-40, 1 mM EDTA; 1.5 h at 4°C
T1 sequence: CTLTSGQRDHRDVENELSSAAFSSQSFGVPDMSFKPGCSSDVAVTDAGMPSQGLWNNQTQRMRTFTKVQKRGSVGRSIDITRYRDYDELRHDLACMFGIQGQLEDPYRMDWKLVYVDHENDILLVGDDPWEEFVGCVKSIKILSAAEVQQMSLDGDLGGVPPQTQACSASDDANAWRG

[2] = target: NLS-mCherry-AID (UniProt P93830); test: co-IP; reciprocal: anti-mCherry-conjugated affinity gel precipitates mCherry-AID from lysate of HEK293T, HEK293T-eGFP-ARF16-PB1 and HEK293T-TIR1-eGFP-ARF16-PB1 cells; blots for GFP and TIR1; 50 mM Tris pH 7.5, 150 mM NaCl, 0.5% NP-40, 1 mM EDTA; 1.5 h at 4°C

## NLS-mCherry-AID (from UniProt P93830 1-229)
[1]
  binding: binds

B1: eGFP-ARF16-PB1 (domain or fragment, UniProt A3B9A0 878-1055)
chain: T1 sequence
[2]
  binding: binds
